Laboratory results taken from article PMC9597257.
These are yes or no findings as the source states them, for the method shown. Binding seen in cells or lysates may run through a third protein. Some entries that bind do so weakly or less than the wild type.

Sequences of proteins named here, by UniProt entry; tags and fusion partners are left off.
UniProt Q95KV1: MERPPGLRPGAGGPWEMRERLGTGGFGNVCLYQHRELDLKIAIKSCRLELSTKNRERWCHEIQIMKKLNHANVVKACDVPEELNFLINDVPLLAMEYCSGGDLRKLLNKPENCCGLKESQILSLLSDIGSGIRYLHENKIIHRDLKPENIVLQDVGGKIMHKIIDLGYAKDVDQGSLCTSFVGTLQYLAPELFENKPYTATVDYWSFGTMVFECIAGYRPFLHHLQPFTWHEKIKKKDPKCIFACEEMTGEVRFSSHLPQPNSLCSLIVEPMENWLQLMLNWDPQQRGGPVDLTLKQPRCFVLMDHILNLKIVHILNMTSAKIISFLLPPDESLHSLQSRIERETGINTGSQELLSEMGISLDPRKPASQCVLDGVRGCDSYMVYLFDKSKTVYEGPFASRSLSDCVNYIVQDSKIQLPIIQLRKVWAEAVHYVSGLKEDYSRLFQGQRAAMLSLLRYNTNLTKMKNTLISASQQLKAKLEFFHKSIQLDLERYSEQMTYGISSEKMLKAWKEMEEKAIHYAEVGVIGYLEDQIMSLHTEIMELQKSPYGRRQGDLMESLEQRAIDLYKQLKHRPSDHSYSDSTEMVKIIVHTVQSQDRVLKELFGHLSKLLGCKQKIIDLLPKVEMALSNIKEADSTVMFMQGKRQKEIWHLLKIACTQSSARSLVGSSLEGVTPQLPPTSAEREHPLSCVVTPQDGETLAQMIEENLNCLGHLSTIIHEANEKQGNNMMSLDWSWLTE
UniProt A2VDU3: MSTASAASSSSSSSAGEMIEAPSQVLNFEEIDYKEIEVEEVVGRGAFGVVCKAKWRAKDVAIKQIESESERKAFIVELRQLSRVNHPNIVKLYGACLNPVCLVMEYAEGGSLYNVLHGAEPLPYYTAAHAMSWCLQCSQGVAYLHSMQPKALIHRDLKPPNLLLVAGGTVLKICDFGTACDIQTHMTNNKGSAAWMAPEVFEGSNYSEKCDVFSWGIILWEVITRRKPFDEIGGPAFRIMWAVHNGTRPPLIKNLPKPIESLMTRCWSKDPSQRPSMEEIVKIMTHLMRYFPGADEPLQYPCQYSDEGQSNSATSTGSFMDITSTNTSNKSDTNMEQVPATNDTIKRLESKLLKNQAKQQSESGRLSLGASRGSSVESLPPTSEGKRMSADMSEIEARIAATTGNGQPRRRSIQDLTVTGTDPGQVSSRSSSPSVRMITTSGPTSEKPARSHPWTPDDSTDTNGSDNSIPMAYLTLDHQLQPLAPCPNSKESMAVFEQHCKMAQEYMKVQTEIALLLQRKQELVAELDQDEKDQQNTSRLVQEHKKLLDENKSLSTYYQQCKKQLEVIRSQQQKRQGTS
UniProt Q4JF28: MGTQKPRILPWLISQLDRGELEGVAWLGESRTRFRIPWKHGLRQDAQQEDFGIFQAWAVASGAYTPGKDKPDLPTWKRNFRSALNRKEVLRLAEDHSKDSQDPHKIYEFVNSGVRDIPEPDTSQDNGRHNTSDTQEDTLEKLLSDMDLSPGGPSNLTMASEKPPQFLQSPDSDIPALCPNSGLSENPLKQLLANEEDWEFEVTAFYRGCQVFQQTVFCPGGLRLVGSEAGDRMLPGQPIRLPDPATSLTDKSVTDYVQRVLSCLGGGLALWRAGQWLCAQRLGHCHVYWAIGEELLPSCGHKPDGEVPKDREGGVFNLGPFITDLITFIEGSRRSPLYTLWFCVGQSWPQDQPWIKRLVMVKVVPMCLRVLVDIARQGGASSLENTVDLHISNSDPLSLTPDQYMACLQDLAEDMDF

T1: stimulator of interferon genes (STING) (Bos taurus (endogenous in bovine bladder tissue)) (UniProt Q2KI99)
T1 sequence: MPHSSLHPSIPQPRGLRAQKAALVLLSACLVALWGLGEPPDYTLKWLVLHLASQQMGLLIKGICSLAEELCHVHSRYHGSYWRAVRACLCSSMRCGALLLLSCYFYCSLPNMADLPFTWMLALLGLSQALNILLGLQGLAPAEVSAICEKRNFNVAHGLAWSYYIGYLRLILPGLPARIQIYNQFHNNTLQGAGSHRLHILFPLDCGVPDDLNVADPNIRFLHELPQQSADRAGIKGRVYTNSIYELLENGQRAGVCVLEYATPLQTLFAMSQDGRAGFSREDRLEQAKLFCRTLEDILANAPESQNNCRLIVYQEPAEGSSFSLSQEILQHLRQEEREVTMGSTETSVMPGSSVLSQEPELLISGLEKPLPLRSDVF

B1: stimulator of interferon genes (STING) (protein, UniProt Q2KI99 1-378)
chain: T1 sequence

Key:
[1] = molecular target: T1, stimulator of interferon genes (STING) (Bos taurus (endogenous in bovine bladder tissue)); test: co-IP; 1 mg total protein extract of bovine bladder samples (RIPA buffer), anti-STING antibody, 1 h at 4°C, Protein A/G-Plus Agarose overnight at 4°C, four washes in lysis buffer, western blot
[2] = molecular target: interferon-inducible protein 16 (IFI16) (bovine (endogenous in bovine bladder tissue)); test: co-IP; 1 mg total protein extract of BPV-infected bovine bladder samples (RIPA buffer), anti-IFI16 antibody, Protein A/G-Plus Agarose, western blot
[3] = molecular target: interferon-inducible protein 16 (IFI16) (bovine (endogenous in bovine bladder tissue)); test: co-IP; 1 mg total protein extract of BPV-negative (non-infected, healthy) bovine bladder samples (RIPA buffer), anti-IFI16 antibody, Protein A/G-Plus Agarose, western blot

Molecule | binding [1] | binding [2] | binding [3]
IKKα (from UniProt Q95KV1 1-740) | binds | – | –
TAK1 (from UniProt A2VDU3 1-579) | binds | – | –
interferon regulatory factor 3 (IRF3) (from UniProt Q4JF28 1-417) | binds | – | –
phosphorylated interferon regulatory factor 3 (pIRF3) (from UniProt Q4JF28 1-417) | binds | – | –
B1 | – | binds weakly | binds
